Some of the results follow.
Compound: Cc1cc(ccc1-c1ccccc1)C(=O)N1CCCN(CC1)C(=O)CCl [compound 10]
Assay: probe-labelled cysteine peptide fold change vs DMSO (competition) (log2 fold change); higher = less target engagement (more negative = stronger competition)
Conditions: THP-1, incubation time: 4 h
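Further: competitive profiling in live THP-1 cells: cysteine peptides tagged with an iodoacetamide desthiobiotin (IA-DTB) probe, intensity after compound treatment relative to DMSO-treated cells.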

Sequences of proteins named here, by UniProt entry; tags and fusion partners are left off. A change or cut given only in a name is not applied to a line headed by its entry.
UniProt P20585: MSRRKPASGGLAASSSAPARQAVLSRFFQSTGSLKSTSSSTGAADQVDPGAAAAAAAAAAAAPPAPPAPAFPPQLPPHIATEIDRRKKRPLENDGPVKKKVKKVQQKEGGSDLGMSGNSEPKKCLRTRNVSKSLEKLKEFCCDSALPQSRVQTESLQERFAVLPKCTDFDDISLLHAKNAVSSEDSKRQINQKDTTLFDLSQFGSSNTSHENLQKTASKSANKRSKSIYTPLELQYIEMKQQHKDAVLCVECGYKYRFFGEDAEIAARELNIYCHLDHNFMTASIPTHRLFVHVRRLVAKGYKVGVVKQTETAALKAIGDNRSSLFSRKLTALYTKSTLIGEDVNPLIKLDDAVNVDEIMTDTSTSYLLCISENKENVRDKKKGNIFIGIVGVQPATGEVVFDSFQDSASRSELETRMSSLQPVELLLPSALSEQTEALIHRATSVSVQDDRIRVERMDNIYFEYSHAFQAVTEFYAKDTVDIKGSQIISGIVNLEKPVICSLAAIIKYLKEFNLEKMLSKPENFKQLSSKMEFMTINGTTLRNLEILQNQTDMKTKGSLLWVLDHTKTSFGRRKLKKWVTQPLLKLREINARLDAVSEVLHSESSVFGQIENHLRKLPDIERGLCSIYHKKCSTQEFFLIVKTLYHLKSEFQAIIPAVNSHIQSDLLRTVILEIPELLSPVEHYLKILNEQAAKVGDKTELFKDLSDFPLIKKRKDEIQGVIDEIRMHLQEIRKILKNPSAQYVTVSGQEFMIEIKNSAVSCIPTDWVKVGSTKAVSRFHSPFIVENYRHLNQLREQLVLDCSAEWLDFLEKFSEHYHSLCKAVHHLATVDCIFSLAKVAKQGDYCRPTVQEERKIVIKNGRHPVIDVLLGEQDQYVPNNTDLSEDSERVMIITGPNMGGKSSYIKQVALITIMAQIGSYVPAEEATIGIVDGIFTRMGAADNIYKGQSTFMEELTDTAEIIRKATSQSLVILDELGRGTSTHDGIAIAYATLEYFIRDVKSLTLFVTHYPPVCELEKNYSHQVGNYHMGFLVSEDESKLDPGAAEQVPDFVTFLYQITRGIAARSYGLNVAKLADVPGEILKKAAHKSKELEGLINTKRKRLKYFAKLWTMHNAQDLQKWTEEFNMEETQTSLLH
UniProt O75592: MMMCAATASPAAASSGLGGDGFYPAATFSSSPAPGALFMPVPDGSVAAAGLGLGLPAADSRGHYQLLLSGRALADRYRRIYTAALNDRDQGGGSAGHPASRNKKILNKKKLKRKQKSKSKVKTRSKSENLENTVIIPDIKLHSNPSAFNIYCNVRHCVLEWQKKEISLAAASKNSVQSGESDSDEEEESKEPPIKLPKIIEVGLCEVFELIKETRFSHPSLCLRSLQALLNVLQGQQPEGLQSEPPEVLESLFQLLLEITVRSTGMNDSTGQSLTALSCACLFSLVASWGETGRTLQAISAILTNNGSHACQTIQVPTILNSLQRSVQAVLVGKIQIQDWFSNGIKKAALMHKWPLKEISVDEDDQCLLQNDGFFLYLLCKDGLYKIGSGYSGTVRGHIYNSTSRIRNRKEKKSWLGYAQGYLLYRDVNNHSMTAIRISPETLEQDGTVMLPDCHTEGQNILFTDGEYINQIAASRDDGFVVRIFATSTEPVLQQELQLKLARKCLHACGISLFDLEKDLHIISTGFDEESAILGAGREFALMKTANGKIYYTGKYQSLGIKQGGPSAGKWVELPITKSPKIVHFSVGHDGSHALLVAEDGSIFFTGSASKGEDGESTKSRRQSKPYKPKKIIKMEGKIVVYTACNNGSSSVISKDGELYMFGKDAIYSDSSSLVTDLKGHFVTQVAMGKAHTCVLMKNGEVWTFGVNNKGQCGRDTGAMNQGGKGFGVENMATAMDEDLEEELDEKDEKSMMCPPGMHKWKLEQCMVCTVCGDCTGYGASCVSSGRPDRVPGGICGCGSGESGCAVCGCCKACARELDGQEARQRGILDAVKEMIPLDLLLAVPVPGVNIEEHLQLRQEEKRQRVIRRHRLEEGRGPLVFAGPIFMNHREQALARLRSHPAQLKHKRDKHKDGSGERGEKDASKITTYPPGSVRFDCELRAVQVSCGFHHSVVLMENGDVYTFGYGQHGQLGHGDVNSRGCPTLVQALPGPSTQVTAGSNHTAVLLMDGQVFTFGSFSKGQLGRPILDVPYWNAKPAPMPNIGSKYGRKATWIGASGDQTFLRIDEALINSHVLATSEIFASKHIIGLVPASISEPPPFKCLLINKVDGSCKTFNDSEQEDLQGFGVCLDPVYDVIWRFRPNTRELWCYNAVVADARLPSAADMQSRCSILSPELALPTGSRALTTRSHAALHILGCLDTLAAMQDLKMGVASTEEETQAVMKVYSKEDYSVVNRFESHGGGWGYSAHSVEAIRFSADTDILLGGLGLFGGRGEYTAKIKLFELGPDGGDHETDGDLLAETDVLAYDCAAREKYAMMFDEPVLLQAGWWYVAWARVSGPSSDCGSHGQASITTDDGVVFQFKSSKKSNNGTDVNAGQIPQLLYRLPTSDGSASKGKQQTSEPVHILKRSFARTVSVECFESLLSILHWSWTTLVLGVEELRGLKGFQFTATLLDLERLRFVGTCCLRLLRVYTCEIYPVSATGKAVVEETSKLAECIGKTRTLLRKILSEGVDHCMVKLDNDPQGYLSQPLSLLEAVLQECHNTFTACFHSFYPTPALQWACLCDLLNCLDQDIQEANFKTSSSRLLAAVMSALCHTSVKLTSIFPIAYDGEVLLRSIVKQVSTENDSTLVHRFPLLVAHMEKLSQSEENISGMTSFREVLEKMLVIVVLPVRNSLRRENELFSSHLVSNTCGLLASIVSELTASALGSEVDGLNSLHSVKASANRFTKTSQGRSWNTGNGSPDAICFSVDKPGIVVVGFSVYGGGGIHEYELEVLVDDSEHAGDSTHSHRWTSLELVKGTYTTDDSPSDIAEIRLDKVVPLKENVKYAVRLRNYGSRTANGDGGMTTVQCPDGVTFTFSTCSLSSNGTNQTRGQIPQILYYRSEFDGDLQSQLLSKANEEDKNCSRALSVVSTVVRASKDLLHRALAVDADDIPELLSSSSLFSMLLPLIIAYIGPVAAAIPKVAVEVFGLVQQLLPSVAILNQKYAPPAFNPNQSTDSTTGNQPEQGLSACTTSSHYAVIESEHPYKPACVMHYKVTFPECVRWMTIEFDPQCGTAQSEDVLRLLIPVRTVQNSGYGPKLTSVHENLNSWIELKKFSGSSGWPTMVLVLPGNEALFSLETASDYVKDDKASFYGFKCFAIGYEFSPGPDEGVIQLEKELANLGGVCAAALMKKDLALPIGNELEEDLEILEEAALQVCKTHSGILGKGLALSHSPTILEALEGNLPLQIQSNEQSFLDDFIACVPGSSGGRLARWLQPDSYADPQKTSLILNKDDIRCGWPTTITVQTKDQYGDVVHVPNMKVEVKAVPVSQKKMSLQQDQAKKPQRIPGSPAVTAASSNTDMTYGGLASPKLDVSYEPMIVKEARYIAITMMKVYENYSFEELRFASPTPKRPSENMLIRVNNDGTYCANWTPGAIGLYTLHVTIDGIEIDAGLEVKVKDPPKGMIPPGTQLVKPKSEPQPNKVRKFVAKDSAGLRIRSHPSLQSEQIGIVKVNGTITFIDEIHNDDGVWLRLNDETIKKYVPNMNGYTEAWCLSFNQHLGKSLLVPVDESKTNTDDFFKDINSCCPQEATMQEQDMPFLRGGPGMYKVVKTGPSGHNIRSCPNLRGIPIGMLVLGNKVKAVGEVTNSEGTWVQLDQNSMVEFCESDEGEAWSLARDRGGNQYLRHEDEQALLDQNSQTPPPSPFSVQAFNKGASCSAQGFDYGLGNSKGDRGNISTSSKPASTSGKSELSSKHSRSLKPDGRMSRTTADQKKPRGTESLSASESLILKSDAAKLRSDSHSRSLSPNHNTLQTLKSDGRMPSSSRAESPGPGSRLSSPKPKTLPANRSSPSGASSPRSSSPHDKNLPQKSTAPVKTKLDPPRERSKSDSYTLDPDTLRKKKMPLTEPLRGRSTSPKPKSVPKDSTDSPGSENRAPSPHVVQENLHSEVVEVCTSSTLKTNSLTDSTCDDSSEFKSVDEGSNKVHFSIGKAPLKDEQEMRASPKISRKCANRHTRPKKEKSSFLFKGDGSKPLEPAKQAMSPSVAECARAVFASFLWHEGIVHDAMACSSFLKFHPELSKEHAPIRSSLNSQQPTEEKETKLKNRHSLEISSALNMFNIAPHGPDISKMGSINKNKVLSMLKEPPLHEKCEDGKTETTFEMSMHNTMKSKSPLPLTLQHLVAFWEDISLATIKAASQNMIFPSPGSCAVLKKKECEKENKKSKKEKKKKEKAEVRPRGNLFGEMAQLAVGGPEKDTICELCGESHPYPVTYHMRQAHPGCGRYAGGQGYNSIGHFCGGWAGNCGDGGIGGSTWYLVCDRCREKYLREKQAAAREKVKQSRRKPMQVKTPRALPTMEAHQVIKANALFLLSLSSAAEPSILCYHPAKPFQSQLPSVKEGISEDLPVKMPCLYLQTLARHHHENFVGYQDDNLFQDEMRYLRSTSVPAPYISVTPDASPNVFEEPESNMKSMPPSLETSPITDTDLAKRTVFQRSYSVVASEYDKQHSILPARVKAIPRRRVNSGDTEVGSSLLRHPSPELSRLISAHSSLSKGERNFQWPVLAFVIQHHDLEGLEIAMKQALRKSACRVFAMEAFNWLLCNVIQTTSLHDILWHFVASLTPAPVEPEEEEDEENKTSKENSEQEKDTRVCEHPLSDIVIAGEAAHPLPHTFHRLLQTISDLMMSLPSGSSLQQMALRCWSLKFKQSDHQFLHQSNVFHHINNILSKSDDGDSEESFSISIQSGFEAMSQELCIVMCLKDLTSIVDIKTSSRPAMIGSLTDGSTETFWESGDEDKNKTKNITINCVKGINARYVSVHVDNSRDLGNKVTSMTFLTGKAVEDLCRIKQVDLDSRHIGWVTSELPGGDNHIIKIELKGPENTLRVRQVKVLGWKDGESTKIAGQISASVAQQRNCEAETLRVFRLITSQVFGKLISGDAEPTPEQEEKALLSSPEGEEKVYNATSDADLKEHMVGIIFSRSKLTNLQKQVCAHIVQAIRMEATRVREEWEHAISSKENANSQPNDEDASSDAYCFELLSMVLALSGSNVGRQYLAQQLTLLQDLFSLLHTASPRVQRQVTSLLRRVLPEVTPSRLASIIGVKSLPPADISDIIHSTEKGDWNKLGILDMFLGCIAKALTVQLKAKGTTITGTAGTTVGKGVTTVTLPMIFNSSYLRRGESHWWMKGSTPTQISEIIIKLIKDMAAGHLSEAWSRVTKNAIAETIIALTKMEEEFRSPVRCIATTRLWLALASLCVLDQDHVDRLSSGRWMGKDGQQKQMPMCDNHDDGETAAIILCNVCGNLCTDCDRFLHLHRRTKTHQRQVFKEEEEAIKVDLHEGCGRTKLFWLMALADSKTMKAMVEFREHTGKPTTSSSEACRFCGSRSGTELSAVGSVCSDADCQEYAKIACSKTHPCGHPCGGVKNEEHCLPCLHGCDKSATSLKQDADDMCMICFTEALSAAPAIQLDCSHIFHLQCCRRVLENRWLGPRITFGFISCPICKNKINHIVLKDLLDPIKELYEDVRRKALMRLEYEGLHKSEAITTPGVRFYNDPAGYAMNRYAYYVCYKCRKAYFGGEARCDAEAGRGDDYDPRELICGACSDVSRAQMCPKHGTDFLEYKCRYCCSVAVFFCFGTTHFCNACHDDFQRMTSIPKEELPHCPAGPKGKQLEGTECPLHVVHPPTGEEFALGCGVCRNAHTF
UniProt Q9BT17: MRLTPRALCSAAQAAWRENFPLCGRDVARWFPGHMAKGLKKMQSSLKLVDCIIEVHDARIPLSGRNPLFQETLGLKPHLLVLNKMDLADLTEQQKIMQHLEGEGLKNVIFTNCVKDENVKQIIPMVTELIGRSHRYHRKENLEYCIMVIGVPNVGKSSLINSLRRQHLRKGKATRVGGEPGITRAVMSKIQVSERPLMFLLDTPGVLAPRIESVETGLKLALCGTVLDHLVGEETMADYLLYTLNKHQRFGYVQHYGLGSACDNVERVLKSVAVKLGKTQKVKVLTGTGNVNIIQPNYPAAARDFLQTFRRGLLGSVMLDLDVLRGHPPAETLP
UniProt Q9Y3D2: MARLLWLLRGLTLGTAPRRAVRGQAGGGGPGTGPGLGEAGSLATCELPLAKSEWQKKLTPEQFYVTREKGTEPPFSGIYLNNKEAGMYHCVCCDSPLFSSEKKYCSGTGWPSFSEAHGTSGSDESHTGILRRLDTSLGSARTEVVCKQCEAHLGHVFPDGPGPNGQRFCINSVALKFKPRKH

| Target | probe-labelled cysteine peptide fold change (10 µM) | probe-labelled cysteine peptide fold change (50 µM) |
| --- | --- | --- |
| MSH3_P20585_847_QGDYCRPTVQEER (UniProt P20585) | -0.0854 | 0.177 |
| MTO1_Q9Y2Z2_707_TDQYLCDADR (UniProt Q9Y2Z2) | -0.58 | -0.982 |
| MTMR2_Q13614_155_GENSYGLETVCK (UniProt Q13614) | -0.124 | 0.059 |
| MRPS30_Q9NP92_393_NICWGTQSK (UniProt Q9NP92) | -0.226 | -0.187 |
| MTMR9_Q96QG7_30_VDNVVLHRPFYPAVEGTLCLTGHHLILSSR (UniProt Q96QG7) | 0.0201 | 0.204 |
| MTREX_P42285_822_MYSHPLHNDPNLETVYTLCEK (UniProt P42285) | 0.0593 | 0.158 |
| MYH9_P35579_569_ADFCIIHYAGK (UniProt P35579) | 0.058 | 0.292 |
| MTPAP_Q9NVV4_324_FSHQASGFQCDLTTNNR (UniProt Q9NVV4) | 0.575 | 0.753 |
| MYH11_P35749_95_VEDMAELTCLNEASVLHNLR (UniProt P35749) | 0.607 | 0.764 |
| MYCBP2_O75592_645_IVVYTACNNGSSSVISK (UniProt O75592) | 0.0185 | 0.245 |
| MTG1_Q9BT17_113_NVIFTNCVK (UniProt Q9BT17) | 0.00792 | 0.0767 |
| MSRB2_Q9Y3D2_105_KYCSGTGWPSFSEAHGTSGSDESHTGILR (UniProt Q9Y3D2) | 0.00846 | -0.434 |
| MYCBP2_O75592_4406+4413_NEEHCLPCLHGCDK (UniProt O75592) | -0.28 | -0.699 |
| MTMR12_Q9C0I1_53_EVTLHLLPGEQLLCEASTVLK (UniProt Q9C0I1) | 0.0327 | -0.0646 |

Two records picked at random from those above:

| Target | probe-labelled cysteine peptide fold change (10 µM) | probe-labelled cysteine peptide fold change (50 µM) |
| --- | --- | --- |
| MTREX_P42285_822_MYSHPLHNDPNLETVYTLCEK (UniProt P42285) | 0.0593 | 0.158 |
| MSH3_P20585_847_QGDYCRPTVQEER (UniProt P20585) | -0.0854 | 0.177 |
